{"source": "patent US20230218693A1", "about": "“HEMP SPROUT PRODUCTS AND METHODS FOR PRODUCING SAME” (priority 2020, published 2023)", "origin": "cited, not measured here", "tested_on": "freshly isolated human blood cells", "details": "Cell viability; 3 μM", "data": [{"smiles": "CN[C@@H]1C[C@H]2O[C@@](C)([C@@H]1OC)n1c3ccccc3c3c4c(c5c6ccccc6n2c5c31)C(=O)NC4", "note": "[staurosporine, reference compound]", "values": [{"measurement": "Reference control, % inhibition at indic. conc.", "result": "staurosporine (3 μM), 80 ± 5%"}]}]}
